These results are taken from article PMC7764960, “Nucleus Accumbens-Associated Protein 1 Binds DNA Directly through the BEN Domain in a Sequence-Specific Manner”.

The target of series [1] is T1, NAC1 (322-485) (Homo sapiens) (UniProt Q96RE7).
T1 sequence (looked up): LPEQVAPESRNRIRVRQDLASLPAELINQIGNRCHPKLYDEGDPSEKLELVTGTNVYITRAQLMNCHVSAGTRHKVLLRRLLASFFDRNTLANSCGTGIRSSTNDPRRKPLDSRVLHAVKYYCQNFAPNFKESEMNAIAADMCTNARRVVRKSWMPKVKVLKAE
Kind of series: ITC. The note with it: ITC: 20 mM HEPES pH 7.0, 0.1 M NaCl, 1 mM TCEP, 20 C (Fig 2 legend says 25 C), recombinant protein, residues 322-485.

In a further series the target is T2, GST-NAC1 (Homo sapiens) (UniProt Q96RE7).
T2 sequence (looked up): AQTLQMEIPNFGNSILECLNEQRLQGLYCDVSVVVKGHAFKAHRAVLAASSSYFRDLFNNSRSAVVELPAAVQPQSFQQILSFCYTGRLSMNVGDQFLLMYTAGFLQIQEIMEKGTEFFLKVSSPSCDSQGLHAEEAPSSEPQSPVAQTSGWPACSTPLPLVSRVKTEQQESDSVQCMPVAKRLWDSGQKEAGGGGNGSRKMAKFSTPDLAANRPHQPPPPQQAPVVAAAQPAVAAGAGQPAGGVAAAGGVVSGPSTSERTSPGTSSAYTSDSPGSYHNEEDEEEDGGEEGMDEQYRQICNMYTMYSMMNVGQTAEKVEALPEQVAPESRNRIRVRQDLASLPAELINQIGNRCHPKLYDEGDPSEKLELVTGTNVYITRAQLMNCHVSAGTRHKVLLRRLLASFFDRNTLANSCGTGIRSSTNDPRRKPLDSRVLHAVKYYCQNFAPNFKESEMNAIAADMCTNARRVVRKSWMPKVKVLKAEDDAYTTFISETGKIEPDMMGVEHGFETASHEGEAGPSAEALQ
Description: pull-down. The note with it: poly(dI/dC); pull-down: 4 C with 10 ug poly(dI/dC), buffer not stated; recombinant protein; residues 2-527; protein details: GST N-term; label: 5' biotin on sense strand.

pKd: −log10 of the molar value. For some of these results: The comparison behind a weaker result is the experiment's own reference, which may not be listed here. Tags and fusion partners may be left off the protein sequences shown. For some of these results: Construct, isoform or probe ends are uncertain for at least one entry.

Broadly, the pKd is −log10 of the Kd, conventionally taken in molar units. On to GTATGCATGTATGT [GP1 14-mer ssDNA], for which the pKd in series [1] (first event (Kd1), single-stranded DNA) was 6.70; in series [1] (second event (Kd2), single-stranded DNA), 6.34.
With “GTATGGCATTATGT (double strand) [GP1 mut 14-mer dsDNA]”, the pKd in series [1] (first event (Kd1)) is 3.87.
Consider “TGTGTGTGTATGGCATTATGTATTTATT (double strand) [Biotin-GP1 mut]”, for which the binding result with GST-NAC1 (Homo sapiens) is on record as “binds more weakly”.
